Measured values from PubChem BioAssay AID1347075 (National Center for Advancing Translational Sciences (NCATS), 2019).
Hit rate of the full screen: of about 400,000 compounds, about 5,500 (1.4%) were called active. Inconclusive results, whose numbers are uncertain, are shown with a selection of clear calls. The call rests on the fitted dose curve; in most records, active means well fitted cell-killing curve with a large enough effect; inconclusive means small, poorly fitted or top-dose-only effect, or effect the other way; inactive means flat fitted curve, though single readings scatter. A potency beside an inconclusive call is a rough fit, not a confirmed value.

Assay: qHTS assay for MDR1-selective chemotherapeutics: Primary screen using the parental adenocarcinoma cell KB-3-1; further: nearly all actives have a fitted effect of over 60% in size
Conditions: KB-3-1 viability, CellTiter-Glo ATP luminescence, 72 h; series mostly up to 46.1 µM
Method in brief: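 KB-3-1 cells, DMEM (no phenol red) + 10% FBS; compound by pin transfer, 72 h, 37 °C. Readout: CellTiter-Glo luminescence after 10 min. Data normalized, curve-fitted.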
Potency means the concentration at half of the fitted maximal effect.

| SMILES | Potency |
| --- | --- |
| Cc1ccc(-n2nnnc2-c2cnn(-c3ccc(F)cc3)c2C(F)(F)F)cc1 | inconclusive: 29.1 µM [cytotoxic, partial curve, poor fit] |
| Cc1c(C(=O)NCc2cccc(C(F)(F)F)c2)sc(=O)n1Cc1ccc(S(=O)(=O)N(C)C)cc1 | inconclusive: 23.1 µM [cytotoxic, single point] |
| CC(C)COc1ccc(Cc2cnc(N)nc2N)cc1 | inconclusive: 20.6 µM [cytotoxic, single point] |
| CCn1c(Cc2cccs2)nnc1SCC(=O)Nc1ccc(OC)c(OC)c1 | inactive |
| c1ccc2c(CCNc3ncnc4nc[nH]c34)cccc2c1 | active: 18.4 µM |
| CC(C)C(=O)N1CCN(c2ccc(NC(=O)c3ccc([N+](=O)[O-])o3)cc2)CC1 | inconclusive: 29.1 µM [cytotoxic, single point] |
| O=C(Nc1ccc(S(=O)(=O)N2CCOCC2)cc1)c1ccc([N+](=O)[O-])o1 | inconclusive: 18.4 µM [cytotoxic, partial curve, poor fit] |
| Cc1cccc2sc(N(CCCN(C)C)C(=O)CCS(=O)(=O)c3ccccc3)nc12 | active: 20.6 µM |
| COc1ccc(S(=O)(=O)N2CCCCCC2)cc1C(=O)OCC(=O)NC(N)=O | inactive |
| CN(Cc1ccccc1)S(=O)(=O)c1ccc2[nH]c3c(c2c1)CCCCC3 | inactive |
| CCNc1nc(Cl)nc(NC2CCCCC2)n1 | inconclusive: 25.9 µM [cytotoxic, single point] |
| Cc1nc(N2CCN(Cc3ccc4c(c3)OCO4)CC2)[nH]c(=O)c1C | inactive |
| CC(C)c1ccc(/C=N/n2cnnc2)cc1 | inactive |
| CCSC1=C(C#N)C2(CCCCC2)C(C#N)=C(N)N1 | inconclusive: 18.4 µM [cytotoxic, single point] |
| Cc1cccc(NC(=O)C2C3CCCCC32)c1 (configuration not stated) | inactive |
| CCCCOc1ccc(NC2=NC3(CCCCC3)N=C(N)N2)cc1 | active: 14.6 µM |
| O=C(CSc1nc(-c2ccco2)cc(C(F)(F)F)n1)Nc1ccc2c(c1)OCO2 | inconclusive: 23.1 µM [cytotoxic, single point] |
| CCC(CO)Oc1cc(NCc2cc(C)cc(C)c2)c2ncn(C(C)C)c2c1 (configuration not stated) | inconclusive: 29.1 µM [cytotoxic, single point] |
| CC(=O)c1ccc(S(=O)(=O)Nc2c(C)nn(C)c2C)cc1 | inactive |
| Cc1ccc(Sc2ncccc2COC(=O)NC(C)C)cc1 | inactive |
| CC(C)CN(C(=O)COC(=O)c1ccc([N+](=O)[O-])s1)c1c(N)n(Cc2ccccc2)c(=O)[nH]c1=O | active: 20.6 µM |
| Cc1ccc(-c2nnc(Nc3cccc(O)c3)c3ccccc23)cc1S(=O)(=O)NCC1CCCO1 (configuration not stated) | inconclusive: 29.1 µM [cytotoxic, single point] |
| O=C(OCC(=O)N1CCN(C(=O)c2ccco2)CC1)c1ccccc1OCc1ccc(Cl)cc1 | inactive |
| COc1cccc(OCc2nc3ccccc3[nH]2)c1 | inconclusive: 29.1 µM [cytotoxic, single point] |

| SMILES | Potency |
| --- | --- |
| NC(=O)C1CCCN(C(=O)NC2CCCCC2)C1 (configuration not stated) | inactive |
| CC(OC(=O)c1cccc(N2C(=O)c3ccccc3C2=O)c1)C(=O)Nc1ccc(N(C)C)cc1 (configuration not stated) | inactive |
| O=C(OCc1ccccc1)N1CCC2CC1c1cc(-c3cc4ccccc4o3)ccc12 (configuration not stated) | inconclusive: 29.1 µM [cytotoxic, single point] |
| CCOc1ccc(NS(=O)(=O)c2cc(NC(=O)c3cccc(C)c3)ccc2Cl)cc1 | inconclusive: 3.66 µM [cytotoxic, full curve, poor fit] |
| CC(=O)c1cccc(NC(=O)C(CC(C)C)NS(=O)(=O)c2ccc3c(c2)CCN3C(C)=O)c1 (configuration not stated) | inconclusive: 20.6 µM [rising, partial curve, poor fit] |
| CCC(C)N(C(=O)c1csnn1)C(C(=O)NCc1ccc(F)cc1)c1ccccc1 (configuration not stated) | inactive |
| CCOC(=O)N1CCN(C(=O)C[C@@H]2C[C@@]3(C(=O)OC)CCCCC=C3N(Cc3ccccc3)C2=O)CC1 | inactive |
| Cc1ccc(C(=O)c2ccccc2C(=O)OCC(=O)N2C(C)CCCC2C)cc1 (configuration not stated) | inactive |
| CN(C)S(=O)(=O)N1CCN(S(=O)(=O)c2ccc(F)cc2)CC1 | inactive |
| O=C(c1ccc(Cl)c(S(=O)(=O)N2CCCC2)c1)N1CCN(c2ccccc2)CC1 | inactive |
| Cc1ccccc1OCCC(=O)N1CCN(S(=O)(=O)c2ccccc2F)CC1 | inconclusive: 18.4 µM [cytotoxic, single point] |
| Clc1ccc(Cn2ncc3c(NCc4cccnc4)ncnc32)cc1 | inconclusive: 20.6 µM [cytotoxic, single point] |
| CCN(CC)C(=O)C1=C(C)N(CCC2=CCCCC2)C(=O)C(CC(=O)NCCCCc2ccccc2)C1 (configuration not stated) | inactive |
| CC(C)COc1ccc(-c2nn(-c3ccccc3)cc2C(=O)Nc2nccs2)cc1 | inactive |
| CCOc1ccc(CCNc2nc3ccccc3n3c(C)nnc23)cc1OCC | inconclusive: 0.291 µM [cytotoxic, full curve] |
| Cc1cccc(-c2cc(NCCc3cccnc3)n3nccc3n2)c1 | inactive |
| COc1cccc(NC(=O)c2nn(C)cc2Br)c1 | inconclusive: 20.6 µM [rising, partial curve, poor fit] |
| O=C(Nc1nnc(C2CC2)o1)c1ccc(S(=O)(=O)N2CCCCC2)cc1 | inconclusive: 16.4 µM [cytotoxic, partial curve] |
| Cc1ccc(CNC(=O)c2cnn(-c3cccc(C)c3)c2C2CCN(C(=O)OC(C)(C)C)CC2)cc1 | inconclusive: 20.6 µM [cytotoxic, single point] |
| CC(C)C(c1nnnn1Cc1ccc(F)cc1)N1CCSCC1 (configuration not stated) | inconclusive: 16.4 µM [rising, single point] |
| CCOC(=O)c1c(C)[nH]c(C(=O)OCC(=O)NCc2ccccc2)c1C | inactive |
| COc1ccc(S(=O)(=O)N2CCCCCC2)cc1NC(=O)c1ccccc1F | inconclusive: 29.1 µM [cytotoxic, single point] |
| O=C(c1cc(-c2ccncc2)nc2ccccc12)N1CCN(c2ccccn2)CC1 | active: 13 µM |

A draw from above in order of length of the SMILES, descending:

| SMILES | Potency |
| --- | --- |
| Cc1ccc(CNC(=O)c2cnn(-c3cccc(C)c3)c2C2CCN(C(=O)OC(C)(C)C)CC2)cc1 | inconclusive: 20.6 µM [cytotoxic, single point] |
| O=C(c1cc(-c2ccncc2)nc2ccccc12)N1CCN(c2ccccn2)CC1 | active: 13 µM |
| COc1ccc(S(=O)(=O)N2CCCCCC2)cc1NC(=O)c1ccccc1F | inconclusive: 29.1 µM [cytotoxic, single point] |
